Record: PubChem BioAssay AID652259 (Drosophila RNAi Screening Center, 2013)

- Test: 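Genome-wide hunt for genes that control Wingless pathway activity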 (primary screen)
- Cells: Drosophila clone 8 imaginal disc epithelial cells
- Reagent: long dsRNA against Drosophila genes
- Treatment: pathway stimulated by co-transfected Wingless expression plasmid
- Measured: 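Firefly luciferase from a tcf-site Wingless reporter, measured alongside co-transfected Renilla luciferase that tracks transfection; pathway stimulated by a Wingless plasmid; the firefly-to-Renilla ratio is not deposited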
- Direction: firefly reporter light: higher = more Wg reporter light, before normalisation; Renilla control light: higher = more transfected or surviving cells
- Active means: 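Strong candidates differ from their plate mean by at least two out of four per-plate statistical tests; weak candidates meet just one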
- Calls: active = candidate regulator (raises or lowers reporter); inactive = not a candidate
The deposit covers about 22,000 reagents; shown is an unselected part of those that have a named target and a result. Over the whole deposit, 233 (1.1%) got an active call. 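Light values are raw, unnormalised plate reads; the ratio scores behind the reporter calls were not deposited.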 Entries without a mark were called inactive. A plus sign joins genes that one reagent is predicted to hit. The record does not give: the amount of reagent, the time to read-out, the dose of the treatment.

target	DRSC id	reporter change call, replicate 1	firefly reporter light, replicate 1	firefly reporter light, replicate 2	Renilla control light, replicate 1	Renilla control light, replicate 2
CG6497 (GeneID 39924)	DRSC10654		11367		4155	
CG6497 (GeneID 39924)	DRSC21469		9.41e5	9.76e5	5.61e5	4.96e5
SerRS-m (GeneID 41862)	DRSC14096		18505		3744	
CG11379 (GeneID 31062)	DRSC18629		16291		12310	
lush (GeneID 40136)	DRSC11364		15168		5168	
kek2 (GeneID 34582)	DRSC03552		2299	9572	613	4237
eIF4G1 (GeneID 43839)	DRSC17218		2839	4881	844	1973
Sec16 (GeneID 32209)	DRSC19788		17563		9533	
Sec16 (GeneID 32209)	DRSC19858		26496		14295	
Arp53D (GeneID 36879)	DRSC05923		6514		2358	
CG15465 (GeneID 31434)	DRSC18048		22048		10092	
krimp (GeneID 36804)	DRSC06578		13962		5255	
Efr (GeneID 31553)	DRSC18322		19500		9910	
Obp99b (GeneID 43497)	DRSC16264		8000		2901	
CG10147 (GeneID 38733)	DRSC09706		1476	5879	1076	2385
sip3 (GeneID 43747)	DRSC15402		2252	6553	944	2025
aly (GeneID 45960)	DRSC08707		7698		4204	
aly (GeneID 45960)	DRSC21784		4.05e5	4.26e5	1.47e5	1.48e5
Cyp6a22 (GeneID 49847)	DRSC07382		11863		3552	
CG42380 + CG42379 + PIG-M + 1 more	DRSC03884		17561		7585	
CG42380 + CG42379 + PIG-M + 1 more	DRSC04580		6200		1917	
GstE11 (GeneID 37128)	DRSC06926		18217		4413	
Ubc2 (GeneID 34487)	DRSC01137		25349		11024	
Ubc2 (GeneID 34487)	DRSC03468		2336	4215	1211	2571
mri (GeneID 38028)	DRSC08259		9402		3146	
Crys (GeneID 34604)	DRSC03294		8723		2375	
CG30178 (GeneID 246501)	DRSC21911		3.82e5	3.55e5	1.56e5	1.41e5
tyf (GeneID 31363)	DRSC18382		20727		8880	
CG13313 (GeneID 39022)	DRSC09984		1656	6233	1469	3376
wus (GeneID 32683)	DRSC20278		1833	5920	852	1955
Tsp42Er (GeneID 35629)	DRSC06183		2561	8212	803	3323
Tbh (GeneID 31718)	DRSC18723		19173		8320	
CG1638 (GeneID 43721)	DRSC15132		22938		8601	
CG13096 (GeneID 34183)	DRSC02198		1754	3108	818	2275
Dnz1 (GeneID 34503)	DRSC03317		11628		3521	
CG5160 (GeneID 34015)	DRSC02821		2394	6657	800	2615
CG14573 (GeneID 40419)	DRSC11734		12763		4774	
ppk3 (GeneID 246504)	DRSC04275		2876	7004	988	2812
Dtd (GeneID 41371)	DRSC15362		10733		2272	
Ir67a (GeneID 39110)	DRSC09897		4352		2084	
Cfp1 (GeneID 31880)	DRSC18128		20026		9956	
EMC2B + EMC2A	DRSC15241		21772		4713	
Or71a (GeneID 39641)	DRSC11244		5721		2085	
YL-1 (GeneID 34516)	DRSC02765		2823	11178	874	3084
Rsph4a (GeneID 37831)	DRSC04338		21944		6404	
Toll-4 (GeneID 34235)	DRSC03458		3201	3529	835	1765
CG12814 (GeneID 41246)	DRSC14552		7208		2322	
CG12814 (GeneID 41246)	DRSC14553		14690		2656	

As entered above:
Under “Renilla control light, replicate 1”, Cfp1 (GeneID 31880) [DRSC18128] reads 9956
ppk3 (GeneID 246504) [DRSC04275], Renilla control light, replicate 2 = 2812
aly (GeneID 45960) [DRSC08707], firefly reporter light, replicate 1: 7698
Result for aly (GeneID 45960) [DRSC21784] in “firefly reporter light, replicate 2”: 4.26e5
For “Renilla control light, replicate 1”, lush (GeneID 40136) [DRSC11364] reads 5168

The listing continues.
target	DRSC id	reporter change call, replicate 1	firefly reporter light, replicate 1	firefly reporter light, replicate 2	Renilla control light, replicate 1	Renilla control light, replicate 2
CG14839 (GeneID 41736)	DRSC14963		20598	7.84e5	6100	3.32e5
slv (GeneID 35773)	DRSC07685		2427	6034	896	2740
Tace (GeneID 43558)	DRSC16340		3897	6506	1425	1307
CG42537 (GeneID 8674074)	DRSC12519		13988		4611	
Ggamma30A (GeneID 45234)	DRSC02715		1845	5350	837	2647
Ggamma30A (GeneID 45234)	DRSC03331		2912	5644	945	3008
Samuel (GeneID 34530)	DRSC02156		2250	4149	650	1674
Samuel (GeneID 34530)	DRSC02401	Wg reporter activity raised (active)	7435	2996	1222	459
Samuel (GeneID 34530)	DRSC02402		3370	8371	1380	4754
Samuel (GeneID 34530)	DRSC21731		5.15e5	5.35e5	1.94e5	1.46e5
CG8563 (GeneID 38826)	DRSC10996		1115	5145	1030	2503
CG9467 (GeneID 41207)	DRSC16498		7593		2592	
asRNA:CR43299 + CG8119	DRSC20083		16595		8323	
CG7298 (GeneID 40210)	DRSC10802		3025		1314	
Snap25 (GeneID 3355084)	DRSC21228		20760		1619	
CG14856 (GeneID 41790)	DRSC14980		15867		4043	
CG11504 (GeneID 43557)	DRSC14318		3461	3426	1266	1014
Septin4 (GeneID 32646)	DRSC20205		2411	8618	794	1728
CG31642 (GeneID 326149)	DRSC02919		7065		4068	
Cdc2rk (GeneID 36051)	DRSC07590		2539	7571	731	2133
Porin2 (GeneID 34499)	DRSC02584		3597	8936	1415	4977
CG15252 (GeneID 31931)	DRSC17981		19557		9337	
CG1421 (GeneID 35432)	DRSC03707		2323	6148	647	2185
CG3494 (GeneID 37903)	DRSC04375		2028	5940	640	1890
CG9737 (GeneID 43600)	DRSC16550		8064		3130	
TwdlK (GeneID 43205)	DRSC16045		4519		1595	
Oatp58Da (GeneID 37543)	DRSC04365		4056	8938	965	4106
CG11710 (GeneID 33044)	DRSC20485		24696		11453	
GstT3 (GeneID 33047)	DRSC20541		16828		8699	
Nf-YC (GeneID 31622)	DRSC18272		24888		1975	
Tudor-SN (GeneID 38045)	DRSC08581		7593		2650	
REPTOR (GeneID 42930)	DRSC14626		4631	6339	1683	1072
Klc (GeneID 39445)	DRSC11203		4676		1709	
CG9312 (GeneID 41686)	DRSC16471		8017		3424	
tai (GeneID 34242)	DRSC02207		1481	3929	432	730
tai (GeneID 34242)	DRSC02673		1625	5168	610	2760
snu (GeneID 43391)	DRSC16589		5681	11843	1565	3091
CG14357 (GeneID 41716)	DRSC14820		13765		2928	
Ref2 (GeneID 34667)	DRSC02563		1467	3990	820	2041
CG32240 (GeneID 317933)	DRSC08093		3133		1783	
CYTB (retired record) (GeneID 192472)	DRSC21272		16148		11656	
CG14960 (GeneID 38403)	DRSC08419		5272		1976	
CG7071 + Muted	DRSC16189		31732		4963	
CG3626 (GeneID 31377)	DRSC18318		21381		9776	
TTLL6A (GeneID 37253)	DRSC06618		8689		3248	
